# Test results taken from PMC9426659.
# The chains behind the UniProt entries cited, without tags or fusion partners.
# UniProt P03466: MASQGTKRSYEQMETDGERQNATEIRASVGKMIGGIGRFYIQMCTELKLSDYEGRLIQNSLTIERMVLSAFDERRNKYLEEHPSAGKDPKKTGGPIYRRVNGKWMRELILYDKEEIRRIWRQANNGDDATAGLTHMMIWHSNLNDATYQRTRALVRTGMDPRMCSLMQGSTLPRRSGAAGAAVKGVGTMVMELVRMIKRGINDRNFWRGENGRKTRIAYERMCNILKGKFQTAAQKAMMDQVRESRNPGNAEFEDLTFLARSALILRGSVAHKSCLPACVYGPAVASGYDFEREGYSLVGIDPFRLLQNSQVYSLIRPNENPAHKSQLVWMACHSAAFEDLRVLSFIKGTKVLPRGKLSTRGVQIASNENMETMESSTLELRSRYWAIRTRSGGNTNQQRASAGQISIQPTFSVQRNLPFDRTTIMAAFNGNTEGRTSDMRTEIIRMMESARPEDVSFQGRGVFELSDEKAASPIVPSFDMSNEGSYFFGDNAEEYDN
# UniProt P03431: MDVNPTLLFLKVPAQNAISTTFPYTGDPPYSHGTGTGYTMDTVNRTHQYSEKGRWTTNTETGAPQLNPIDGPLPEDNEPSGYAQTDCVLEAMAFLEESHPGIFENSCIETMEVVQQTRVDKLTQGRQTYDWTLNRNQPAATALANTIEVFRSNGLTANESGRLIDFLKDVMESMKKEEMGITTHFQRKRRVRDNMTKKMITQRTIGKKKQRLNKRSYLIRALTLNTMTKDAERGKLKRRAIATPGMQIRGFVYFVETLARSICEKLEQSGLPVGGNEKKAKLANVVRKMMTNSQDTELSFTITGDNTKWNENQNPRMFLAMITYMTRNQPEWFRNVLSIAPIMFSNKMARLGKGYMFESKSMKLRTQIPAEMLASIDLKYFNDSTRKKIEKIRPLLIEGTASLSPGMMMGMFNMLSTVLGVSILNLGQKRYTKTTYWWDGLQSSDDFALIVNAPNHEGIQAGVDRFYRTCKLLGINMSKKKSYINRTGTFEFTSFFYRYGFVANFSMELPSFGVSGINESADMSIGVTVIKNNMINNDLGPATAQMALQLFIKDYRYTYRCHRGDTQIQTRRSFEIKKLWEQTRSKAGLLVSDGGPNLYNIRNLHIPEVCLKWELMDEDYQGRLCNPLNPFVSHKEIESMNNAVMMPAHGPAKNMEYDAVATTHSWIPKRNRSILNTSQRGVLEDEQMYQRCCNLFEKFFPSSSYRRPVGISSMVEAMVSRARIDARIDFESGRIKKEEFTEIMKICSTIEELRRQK
# No constants are given. Whether binding was seen depends on the method and setting. In cells and extracts the contact can be indirect. Some binding calls cover weakened binding; strength is not graded here. Tags and fused reporters may be left off the sequences shown.
# B1: HA-NUP85 (nucleoporin 85) (protein, UniProt Q9BW27 1-656)
# chain: MEELDGEPTVTLIPGVNSKKNQMYFDWGPGEMLVCETSFNKKEKSEMVPSCPFIYIIRKDVDVYSQILRKLFNESHGIFLGLQRIDEELTGKSRKSQLVRVSKNYRSVIRACMEEMHQVAIAAKDPANGRQFSSQVSILSAMELIWNLCEILFIEVAPAGPLLLHLLDWVRLHVCEVDSLSADVLGSENPSKHDSFWNLVTILVLQGRLDEARQMLSKEADASPASAGICRIMGDLMRTMPILSPGNTQTLTELELKWQHWHEECERYLQDSTFATSPHLESLLKIMLGDEAALLEQKELLSNWYHFLVTRLLYSNPTVKPIDLHYYAQSSLDLFLGGESSPEPLDNILLAAFEFDIHQVIKECSIALSNWWFVAHLTDLLDHCKLLQSHNLYFGSNMREFLLLEYASGLFAHPSLWQLGVDYFDYCPELGRVSLELHIERIPLNTEQKALKVLRICEQRQMTEQVRSICKILAMKAVRNNRLGSALSWSIRAKDAAFATLVSDRFLRDYCERGCFSDLDLIDNLGPAMMLSDRLTFLGKYREFHRMYGEKRFADAASLLLSLMTSRIAPRSFWMTLLTDALPLLEQKQVIFSAEQTYELMRCLEDLTSRRPVHGESDTEQLQDDDIETTKVEMLRLSLARNLARAIIREGSLEGS
# B2: HA-RanBP5 (Ran-binding protein 5) (protein, UniProt O00410 1-1097)
# chain: MAAAAAEQQQFYLLLGNLLSPDNVVRKQAEETYENIPGQSKITFLLQAIRNTTAAEEARQMAAVLLRRLLSSAFDEVYPALPSDVQTAIKSELLMIIQMETQSSMRKKVCDIAAELARNLIDEDGNNQWPEGLKFLFDSVSSQNVGLREAALHIFWNFPGIFGNQQQHYLDVIKRMLVQCMQDQEHPSIRTLSARATAAFILANEHNVALFKHFADLLPGFLQAVNDSCYQNDDSVLKSLVEIADTVPKYLRPHLEATLQLSLKLCGDTSLNNMQRQLALEVIVTLSETAAAMLRKHTNIVAQTIPQMLAMMVDLEEDEDWANADELEDDDFDSNAVAGESALDRMACGLGGKLVLPMIKEHIMQMLQNPDWKYRHAGLMALSAIGEGCHQQMEGILNEIVNFVLLFLQDPHPRVRYAACNAVGQMATDFAPGFQKKFHEKVIAALLQTMEDQGNQRVQAHAAAALINFTEDCPKSLLIPYLDNLVKHLHSIMVLKLQELIQKGTKLVLEQVVTSIASVADTAEEKFVPYYDLFMPSLKHIVENAVQKELRLLRGKTIECISLIGLAVGKEKFMQDASDVMQLLLKTQTDFNDMEDDDPQISYMISAWARMCKILGKEFQQYLPVVMGPLMKTASIKPEVALLDTQDMENMSDDDGWEFVNLGDQQSFGIKTAGLEEKSTACQMLVCYAKELKEGFVEYTEQVVKLMVPLLKFYFHDGVRVAAAESMPLLLECARVRGPEYLTQMWHFMCDALIKAIGTEPDSDVLSEIMHSFAKCIEVMGDGCLNNEHFEELGGILKAKLEEHFKNQELRQVKRQDEDYDEQVEESLQDEDDNDVYILTKVSDILHSIFSSYKEKVLPWFEQLLPLIVNLICPHRPWPDRQWGLCIFDDVIEHCSPASFKYAEYFLRPMLQYVCDNSPEVRQAAAYGLGVMAQYGGDNYRPFCTEALPLLVRVIQSADSKTKENVNATENCISAVGKIMKFKPDCVNVEEVLPHWLSWLPLHEDKEEAVQTFNYLCDLIESNHPIVLGPNNTNLPKIFSIIAEGEMHEAIKHEDPCAKRLANVVRQVQTSGGLWTECIAQLSPEQQAAIQELLNSA
# How the values were obtained:
# [1] = molecular target: Flag-NP (nucleoprotein of PR8 H1N1 virus) (influenza A virus A/Puerto Rico/8/1934 (H1N1)) (UniProt P03466); assay: co-IP
# [2] = molecular target: Flag-PB1 (polymerase basic protein 1 of PR8 H1N1 virus) (influenza A virus A/Puerto Rico/8/1934 (H1N1)) (UniProt P03431); assay: co-IP
Binder,binding [1],binding [2]
B1,no binding,–
B2,–,binds
